Results on one substance are retold here after paper PMC5384083.

Results are given in words; binding and its absence hold for the method and conditions named. In cells and extracts the contact can be indirect. Binding calls can cover weak binding; strength is not graded here.

This experiment has as its target T1, Retinoblastoma protein (Rb), endogenous (human (endogenous in MCF7 and MDA-MB-453)) (UniProt P06400).
T1 sequence: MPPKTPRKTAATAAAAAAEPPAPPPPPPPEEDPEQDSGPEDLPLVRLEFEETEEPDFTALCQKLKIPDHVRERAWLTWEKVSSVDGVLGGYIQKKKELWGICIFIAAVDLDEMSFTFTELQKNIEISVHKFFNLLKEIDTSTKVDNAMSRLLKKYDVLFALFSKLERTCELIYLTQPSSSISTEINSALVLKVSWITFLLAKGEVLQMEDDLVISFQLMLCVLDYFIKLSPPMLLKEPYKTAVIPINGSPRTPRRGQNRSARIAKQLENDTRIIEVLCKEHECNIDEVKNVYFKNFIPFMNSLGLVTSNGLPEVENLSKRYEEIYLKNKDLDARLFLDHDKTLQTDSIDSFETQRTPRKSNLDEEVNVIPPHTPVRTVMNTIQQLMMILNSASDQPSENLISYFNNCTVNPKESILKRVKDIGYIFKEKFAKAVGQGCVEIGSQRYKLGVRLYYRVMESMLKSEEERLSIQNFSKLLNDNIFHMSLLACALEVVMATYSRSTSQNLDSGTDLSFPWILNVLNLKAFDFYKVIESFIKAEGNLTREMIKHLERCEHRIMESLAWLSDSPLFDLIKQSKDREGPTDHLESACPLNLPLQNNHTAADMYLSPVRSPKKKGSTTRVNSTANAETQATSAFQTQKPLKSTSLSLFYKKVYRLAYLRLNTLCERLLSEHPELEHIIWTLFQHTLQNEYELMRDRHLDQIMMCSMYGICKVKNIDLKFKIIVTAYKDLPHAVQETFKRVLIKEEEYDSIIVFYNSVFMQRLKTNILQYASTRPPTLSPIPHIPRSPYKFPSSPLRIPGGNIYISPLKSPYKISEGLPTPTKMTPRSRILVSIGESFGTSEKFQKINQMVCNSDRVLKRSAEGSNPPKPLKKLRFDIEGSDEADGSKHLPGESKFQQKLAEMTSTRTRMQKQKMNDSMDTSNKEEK
Nature of the experiment: co-IP; extracts of MCF7 cells, endogenous proteins; immunoprecipitated with Rb, CBP, FoxM1 or P3 (phospho-FoxM1) antibody; blots with pan-FoxM1, P3, CBP, Rb, DNMT3b antibodies; in one panel cells treated with BI 2536 (100 nM, 24 h) or DMSO.

“FoxM1, endogenous (detected with pan-FoxM1 antibody) (human (endogenous in MCF7))”: the binding result is on record as “binds”.
